The values below come from PubChem BioAssay AID504861 (Broad Institute, 2011).

In all, about 1,200 compounds went through this assay and about 290 (24%) were called active. Roughly 3% stayed inconclusive and do not appear here.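 The calls were made as follows: active = compounds lowering cell viability signal with fitted half-maximal concentration at most ten times their highest tested concentration; inconclusive = flat fit with 30 to 70% signal loss, or poor fit; inactive = the rest.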 Only a part is listed here, and it is no random draw. Results with a measured potency or affinity are listed apart.

The nature of this experiment: HEK293T cell viability reduction, dose response, cytotoxicity control for LMP1 NF-kB inhibitor project, CellTiter-Glo luminescence, cherry-picks (AID 504861). As to conditions: CellTiter-Glo ATP luminescence, 48 h; at 26 µM (top of the series). A general note: Cellular ATP, detected with luciferase, serves as a proxy for viable cell number.
Regarding `O=Cc1cc(OCc2ccccc2)ccc1[B-](F)(F)F`, the activity change, negative = cytotoxicity is inactive: 17.3%. As for `CC(C)CC1C(=O)N(Cc2cn(CC3CCCCC3)nn2)CCS(=O)(=O)N1Cc1ccc(-c2ccc(F)nc2)cc1` (stereo unspecified), the activity change, negative = cytotoxicity is inactive: -1.62%.

Turning to `NC(=O)c1sc2nc3c(c(-c4ccccc4)c2c1N)CCC3`, the activity change, negative = cytotoxicity was inactive: 4.21%. Take `CC(=O)Oc1ccc(C(=O)Nc2cccnc2)cc1`: the activity change, negative = cytotoxicity is inactive: 1.74%.

Turning to `CCCCOc1ccc2c(c1)/C(=C(\C(Cl)=C(Cl)Cl)[N+](=O)[O-])N2`, the activity change, negative = cytotoxicity is inactive: 2.79%.

Turning to `O=C(NCC1CCOCC1)c1ccc(OC2CCN(Cc3ccccn3)CC2)cc1`, the activity change, negative = cytotoxicity is inactive: 10.3%. Under `Cc1ccc(-n2ccc(=O)c(C(=O)Nc3ccc(S(=O)(=O)N4CCOCC4)cc3)n2)cc1` stands inactive: 0.296%; under `NC(=O)N/N=C/c1ccc(N2CCOCC2)s1`, inactive: 10.5%. In the case of `N=C1S/C(=C\c2ccccc2)C(=O)N1c1ccc(F)cc1`, the activity change, negative = cytotoxicity is inactive: 21%. As for `O=C(c1cccs1)N1CC=C(c2ccccc2)CC1`, the activity change, negative = cytotoxicity was inactive: 2.88%. Regarding `COc1ccc(N2C(=O)C(=O)/C(=C(/O)c3ccc(C)cc3)C2c2cccnc2)cc1` (stereo unspecified), the activity change, negative = cytotoxicity was inactive: 12.4%. Take `O=C(Nc1cccc(Cl)c1)Nc1cccc(C(=O)O)c1`: the activity change, negative = cytotoxicity is inactive: 4.19%. On to `CCOC(=O)OC(C)OC(=O)[C@@H]1N2C(=O)[C@@H](NC(=O)[C@H](N)c3ccccc3)[C@H]2SC1(C)C` (stereo partly specified), for which the activity change, negative = cytotoxicity is inactive: -12.7%.

With `CC1=CC(=NOC(=O)/C=C/c2ccccc2)C=C(C)C1=O`, the activity change, negative = cytotoxicity was inactive: 1.24%. As for `CCCCCC(=O)N1C[C@@H](O)[C@H](n2cc(C3CC3)nn2)C[C@@H]1c1ccc(C)cc1`, the activity change, negative = cytotoxicity was inactive: 3.84%.

For `CCOc1ccccc1NC(=O)Cn1c(=O)sc2ccccc21`, the activity change, negative = cytotoxicity is inactive: 3.03%. Under `C=CCN=C1NN=C(c2cc(C)n(CCOC)c2C)CS1` stands inactive: 14%; under `Cn1cc(S(=O)(=O)N2CCN(C(=O)c3ccco3)CC2)c(=O)n(C)c1=O`, inactive: 5.9%.

Consider `Cc1ccc(C(=O)NCC(=O)N(C)Cc2cccc(F)c2)s1`, for which the activity change, negative = cytotoxicity was inactive: 9.7%. In the case of `Cc1nc(Nc2nc3ccccc3o2)nc2c1CCC2`, the activity change, negative = cytotoxicity was inactive: -4.54%. For the compound `COc1cc(NC(=S)N2CCN(CCO)CC2)cc(OC)c1`, the activity change, negative = cytotoxicity is inactive: 3.8%. `CCOC(=O)c1cnc(-n2nc(C)cc2C)nc1NNc1cc(C)nc(-c2ccccc2)n1`: the activity change, negative = cytotoxicity is inactive: 16.4%. Regarding `CCNc1nc(CN2CCOCC2)nc2sc3c(c12)CCC3`, the activity change, negative = cytotoxicity was inactive: 5.01%. Consider `Cc1cc(NC(=O)c2ccc(C)s2)n(-c2nc3ccccc3[nH]2)n1`, for which the activity change, negative = cytotoxicity was inactive: 0.765%. The result for `N#CCN(N=Nc1ccccc1)c1ccccc1` reads inactive: -6.12%; that for `CCOC(=O)c1cn2nc(N3CCCC3)ccc2n1`, inactive: -3.72%. For the compound `CC(CN1CCCCC1)OC(=O)c1ccc2c(c1)OCO2` (stereo unspecified), the activity change, negative = cytotoxicity was inactive: 16%. Under `CC1=C(C)C(OCCCl)N(c2cc(O)c(Cl)cc2F)C1=O` (stereo unspecified) stands inactive: 11.4%; under `COc1cccc(C(=O)Nc2nc3ccccc3[nH]2)c1`, inactive: -10.2%; under `COc1cc(C(c2sc3nc(C)nn3c2O)N2CCc3ccccc3C2)cc(OC)c1OC` (stereo unspecified), inactive: 7.79%. Turning to `O=C(OCc1nc2ccccc2s1)[C@@H]1CCCN1S(=O)(=O)c1ccccc1F`, the activity change, negative = cytotoxicity was inactive: 12.6%. As to `Oc1[nH]c2ccccc2c1N=Nc1c(F)c(F)c(Cl)c(F)c1F`, the activity change, negative = cytotoxicity is inactive: 2.12%. For `CSc1nc(C)cc(C)c1C#N`, the activity change, negative = cytotoxicity is inactive: 3.54%. With `Cc1onc(-c2c(Cl)cccc2Cl)c1C(=O)N[C@@H]1C(=O)N2[C@@H]1SC(C)(C)[C@@H]2C(=O)O`, the activity change, negative = cytotoxicity was inactive: 11.4%.

Regarding `COc1ccc([C@H]2N[C@]3(CCCN(Cc4ccco4)C3=O)[C@H]3C(=O)N(Cc4ccccc4)C(=O)[C@@H]23)cc1`, the activity change, negative = cytotoxicity was inactive: 3.06%.

On to `COc1ccc(OC)c(NC(=O)COc2coc(CN3CCc4ccccc43)cc2=O)c1`, for which the activity change, negative = cytotoxicity is inactive: 5.75%. The result for `COc1cc(/C=C2/SC(=S)N(Cc3ccccc3)C2=O)ccc1OCC(=O)O` reads inactive: 1.52%. `O=C(c1ccccc1Br)N1CCN(Cc2ccc3c(c2)OCO3)CC1`: the activity change, negative = cytotoxicity was inactive: 3.51%. In the case of `O=C(Nc1nnc(-c2cccs2)o1)c1cccc(C(F)(F)F)c1`, the activity change, negative = cytotoxicity was inactive: 8.43%. Under `COc1ccc(C(=O)NCCNc2nc3cc(C)c(C)cc3cc2C)cc1` stands inactive: 1.27%; under `O=C(CCNc1cccc(F)c1)c1cc2ccccc2o1`, inactive: 5.13%.

Take `CCC(C)[C@H](NC(=O)NCc1cccnc1)C(=O)OC` (stereo partly specified): the activity change, negative = cytotoxicity was inactive: -1.02%. The result for `CCc1ccccc1NC(=O)COC(=O)c1c(C)nsc1NC` reads inactive: 0.078%; that for `Cc1ccc(S(=O)(=O)N2CCN(C(=O)COC(=O)COc3ccc(Cl)cc3)CC2)c(C)c1`, inactive: -2.35%.

For `CCOC(=O)C1=C(C)N(C)C(=O)NC1c1ccccc1OC` (stereo unspecified), the activity change, negative = cytotoxicity is inactive: -1.28%. As for `CCc1c(C)nc2cc(-c3ccc(OC)c(OC)c3)nn2c1NCC1CC1`, the activity change, negative = cytotoxicity is inactive: -6.74%. Turning to `COC(=O)C1=C(C)N(CCCC(=O)O)C(=O)NC1c1cccc(Cl)c1Cl` (stereo unspecified), the activity change, negative = cytotoxicity is inactive: 0.475%.

With `Cc1cc(=O)[nH]c(=S)[nH]1`, the activity change, negative = cytotoxicity is inactive: 6.02%. Regarding `CCCc1nc(SCC(=O)NCc2ccco2)c2c(=O)n(C)c(=O)n(C)c2n1`, the activity change, negative = cytotoxicity was inactive: 17.5%. Turning to `COCCn1c(SCC(=O)N2CCc3ccccc32)nc2c(c1=O)SC(C)C2` (stereo unspecified), the activity change, negative = cytotoxicity is inactive: -3.77%. As to `CC(=O)NC(CCS(C)(=O)=O)C(=O)Nc1ccc(Cl)c(Cl)c1` (stereo unspecified), the activity change, negative = cytotoxicity is inactive: 13.4%. As for `COc1ccc(C(c2sc3nc(C)nn3c2O)N2CCC(C(N)=O)CC2)cc1OC` (stereo unspecified), the activity change, negative = cytotoxicity was inactive: 4.88%. Regarding `O=C(CN1C(=O)c2ccccc2S1(=O)=O)c1ccccc1F`, the activity change, negative = cytotoxicity is inactive: 1.26%. With `Cc1ccc(S(=O)(=O)N2CCC[C@H]2C(=O)Nc2ccccc2C)cc1`, the activity change, negative = cytotoxicity is inactive: 6.33%. With `CC(C)(C)c1ccc(C(=O)N2CCC(=O)N(C(CO)Cc3ccccc3)CC2)cc1` (stereo unspecified), the activity change, negative = cytotoxicity is inactive: 1.74%. Under `Oc1cccc(/C=N/NC(=S)NCCN2CCOCC2)c1O` stands inactive: -11%; under `O=Cc1ccc(-c2cccs2)s1`, inactive: 2.5%; under `CN1C(=O)C(CC(=O)NC2CCCCC2)SC1=Nc1ccccc1` (stereo unspecified), inactive: 1.42%. Consider `COc1cc(C2CC(=O)N3CN(Cc4ccccc4)CSC3=C2C#N)ccc1OCc1ccccc1` (stereo unspecified), for which the activity change, negative = cytotoxicity was inactive: 3.25%. The result for `Cc1ccc(NC(=S)N=Nc2c(O)n(C)c3ccc(S(=O)(=O)N4CCOCC4)cc23)cc1` reads inactive: 7.26%; that for `Cc1ccc2c(c1)N(CC(=O)N1CCCC1)C(=O)c1cccnc1O2`, inactive: 7.59%; that for `CCOc1ccc(NC(=O)Cn2cc(C(=O)CC)c3ccccc32)cc1`, inactive: 9.94%. As for `Cc1cc(C)cc(C(=O)NCCC(=O)NCc2cc(=O)n(C)c(=O)n2C)c1`, the activity change, negative = cytotoxicity was inactive: 8.31%. Turning to `COc1ccc(S(=O)(=O)NCC(c2cccnc2)N2CCN(c3ccc(F)cc3)CC2)cc1C` (stereo unspecified), the activity change, negative = cytotoxicity is inactive: -2.1%. For `Cc1cc2ccccc2n1CCNC(=O)COc1ccc2ccccc2c1`, the activity change, negative = cytotoxicity was inactive: -4.26%.

As to `COc1ccc(CCC(=O)Nc2ccc(C)c([N+](=O)[O-])c2)cc1`, the activity change, negative = cytotoxicity is inactive: -8.9%.

As for `COc1cc2cc(C(=O)N3CCN(c4ccccc4OC)CC3)[nH]c2cc1OC`, the activity change, negative = cytotoxicity is inactive: 3.07%. Under `COc1ccc(-c2csc3ncnc(NCCCO)c23)cc1` stands inactive: -3.85%; under `Cc1nnc(SCC(=O)N2CCC(c3noc4ccc(F)cc34)CC2)s1`, inactive: -0.633%; under `O=C(CSc1nnc(-c2cccc(S(=O)(=O)N3CCOCC3)c2)n1C1CCCCCC1)NCc1ccccc1`, inactive: 4.37%. Turning to `COc1ccc(N2C3=[N+](CC2(C)O)c2ccccc2CC3)cc1` (stereo unspecified), the activity change, negative = cytotoxicity is inactive: -2.75%. For the compound `CC[C@]1(C(=O)OC)[C@H]2C(=O)N(Cc3ccccc3)C(=O)[C@H]2[C@H]2CN=C(SCc3ccc(Cl)cc3)N21`, the activity change, negative = cytotoxicity was inactive: -11.5%. As to `OCCN(CCO)CC(O)COCCC12CC3CC(CC(C3)C1)C2` (stereo unspecified), the activity change, negative = cytotoxicity was inactive: 6.07%. Take `COc1cccc(/C=N\NC(=O)c2ccc(C)nc2)c1`: the activity change, negative = cytotoxicity is inactive: 0.683%.

Consider `Cc1ccc(S(=O)(=O)N2CCN(C(=O)CSc3nnnn3C)C2)cc1`, for which the activity change, negative = cytotoxicity is inactive: 10.2%. In the case of `CCOC(=O)c1cc(-c2ccccc2)n(CC(=O)Nc2cccc(OC)c2)c1C`, the activity change, negative = cytotoxicity was inactive: 2.45%. As to `Cc1ccc(CCNC(=O)Cc2ccc(NC3=NC4CS(=O)(=O)CC4S3)cc2)cc1` (stereo unspecified), the activity change, negative = cytotoxicity was inactive: 6.82%. As for `CC1CCc2nc(N)c(C#N)c(-c3cccnc3)c2C1` (stereo unspecified), the activity change, negative = cytotoxicity is inactive: -2.74%. As for `O=C(NN1C(=O)C2C3C=CC(C4CC34)C2C1=O)c1cccc(Cl)c1` (stereo unspecified), the activity change, negative = cytotoxicity is inactive: 9.14%.

For `Cn1nc(-c2ccc(N3CCOCC3)c(NS(=O)(=O)c3ccccc3)c2)c2ccccc2c1=O`, the activity change, negative = cytotoxicity was inactive: 5.2%. In the case of `CC(C)OCCCNC(=O)C1CCC(CNS(=O)(=O)c2ccccc2)CC1` (stereo unspecified), the activity change, negative = cytotoxicity was inactive: 0.66%. As to `COc1ccc(N2C(=O)C(Cl)=C(NCc3ccccc3)C2=O)cc1`, the activity change, negative = cytotoxicity was inactive: 14.4%. On to `O=C(/C=C/Nc1cccc(C(F)(F)F)c1)C(F)(F)F`, for which the activity change, negative = cytotoxicity was inactive: -1.79%. In the case of `C[C@@H](OC(=O)c1[nH]cnc1C(=O)N1CCc2ccccc2C1)c1ccccc1`, the activity change, negative = cytotoxicity is inactive: -0.366%. Take `COc1ccc(-c2[nH]ncc2/C=N\NS(=O)(=O)c2ccc(Cl)cc2)cc1`: the activity change, negative = cytotoxicity was inactive: 2.52%.

Take `Nc1ccn(C2CCCO2)c(=O)n1` (stereo unspecified): the activity change, negative = cytotoxicity was inactive: 6.87%.

Regarding `NC1=NC(=O)NC1(c1ccccc1)c1ccccc1`, the activity change, negative = cytotoxicity is inactive: 9.4%. `CCN(Cc1ccncc1)C(=O)CCc1ccccc1`: the activity change, negative = cytotoxicity was inactive: 0.206%. The result for `CC(C)(C)c1nc2c(s1)CCc1onc(-c3ccc(Br)cc3)c1-2` reads inactive: 8.91%; that for `CNC(=S)N1N=C(c2cccs2)CC1c1ccc(F)cc1` (stereo unspecified), inactive: -8.27%; that for `O=C1NC(=O)/C(=C\c2ccc(OCc3cccc(C(=O)O)c3)c(Cl)c2)N1`, inactive: 0.955%. Turning to `COc1ccccc1-n1c(-c2ccccc2)n[nH]c1=S`, the activity change, negative = cytotoxicity is inactive: 12.9%.

`O=C(CN1C(=O)c2ccccc2S1(=O)=O)c1ccc(F)c(F)c1`: the activity change, negative = cytotoxicity is inactive: 6.66%.

For `NC(=O)OCC(COC(N)=O)c1ccccc1`, the activity change, negative = cytotoxicity was inactive: 4.36%. Regarding `CCCSc1ccc([C@@H]2[C@H]3C(=O)N(C)C(=O)[C@H]3[C@]3(C(=O)OC)CCCN23)cc1OC`, the activity change, negative = cytotoxicity was inactive: 6.23%. For `N=c1c(-c2nc3ccccc3[nH]2)cc(C(=O)c2cccs2)nn1-c1ccccc1`, the activity change, negative = cytotoxicity was inactive: 3.84%.
